Data: article PMC8551951 (Biophysical Reviews, 2021)

Sequences of proteins named here, by UniProt entry; tags and fusion partners are left off.
UniProt Q8NER1, whole entry: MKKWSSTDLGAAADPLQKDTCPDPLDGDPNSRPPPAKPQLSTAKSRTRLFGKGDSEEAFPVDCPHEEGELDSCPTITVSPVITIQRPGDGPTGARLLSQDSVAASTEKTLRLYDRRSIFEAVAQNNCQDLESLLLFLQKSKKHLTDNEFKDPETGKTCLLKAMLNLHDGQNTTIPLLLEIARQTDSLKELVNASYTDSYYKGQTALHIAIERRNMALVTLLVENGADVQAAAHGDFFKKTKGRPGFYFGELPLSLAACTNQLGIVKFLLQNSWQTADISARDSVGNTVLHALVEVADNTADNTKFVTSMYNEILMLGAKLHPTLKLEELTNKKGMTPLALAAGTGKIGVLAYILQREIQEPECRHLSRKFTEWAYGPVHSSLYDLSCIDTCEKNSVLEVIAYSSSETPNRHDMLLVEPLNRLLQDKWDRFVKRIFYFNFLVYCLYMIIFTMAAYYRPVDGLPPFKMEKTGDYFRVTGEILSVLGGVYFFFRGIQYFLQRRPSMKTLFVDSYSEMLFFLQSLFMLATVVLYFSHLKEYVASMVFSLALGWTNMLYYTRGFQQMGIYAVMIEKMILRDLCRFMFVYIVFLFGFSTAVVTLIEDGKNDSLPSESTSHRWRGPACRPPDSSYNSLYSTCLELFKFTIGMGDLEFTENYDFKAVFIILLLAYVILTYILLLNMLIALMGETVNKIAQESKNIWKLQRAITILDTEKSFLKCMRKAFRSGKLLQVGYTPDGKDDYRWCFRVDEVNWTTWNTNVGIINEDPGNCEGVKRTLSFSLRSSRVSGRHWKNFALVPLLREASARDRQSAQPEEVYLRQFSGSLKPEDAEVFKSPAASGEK

Molecular target: TRPV1 channel heterologously expressed in HEK293 cells (Homo sapiens, UniProt Q8NER1)
Test: cell-based
Settings: HEK293, read-out: % inhibition of capsaicin-induced TRPV1 currents

C(=C\c1ccccc1)/CN1CCN(C(c2ccccc2)c2ccccc2)CC1 [Cinnarizine] gave an inhibition at 1 µM of 40 ± 6%.
